From patent US6528295
Results are given in words; binding and its absence hold for the method and conditions named. Binding seen in cells or lysates may run through a third protein. Some binding calls cover weakened binding; strength is not graded here.

The chains behind the UniProt entries cited, without tags or fusion partners. Where a name states a change or a piece, a line headed by the entry shows the natural chain unless it says otherwise. A line that says so, or that is headed by a name, gives the form on record, which may keep a tag or linker.
HA-tagged PP2A C subunit double mutant H59Q/301Stop (P67775, form named): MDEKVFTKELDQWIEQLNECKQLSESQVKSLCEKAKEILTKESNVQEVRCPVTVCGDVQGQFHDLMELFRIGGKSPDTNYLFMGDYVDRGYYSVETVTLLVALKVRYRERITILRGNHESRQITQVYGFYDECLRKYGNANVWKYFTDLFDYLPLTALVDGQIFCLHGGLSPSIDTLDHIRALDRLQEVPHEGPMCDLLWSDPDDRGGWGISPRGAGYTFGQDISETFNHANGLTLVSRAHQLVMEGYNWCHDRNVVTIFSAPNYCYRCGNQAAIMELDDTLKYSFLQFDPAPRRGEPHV

What was measured:
[1] = biological target: T1, Protein Phosphatase Methylesterase-1 (PME-1), endogenous protein of NIH3T3 cells (mouse) (UniProt Q8BVQ5); assay: anti-HA co-immunoprecipitation, immunoblot
T1 sequence (looked up): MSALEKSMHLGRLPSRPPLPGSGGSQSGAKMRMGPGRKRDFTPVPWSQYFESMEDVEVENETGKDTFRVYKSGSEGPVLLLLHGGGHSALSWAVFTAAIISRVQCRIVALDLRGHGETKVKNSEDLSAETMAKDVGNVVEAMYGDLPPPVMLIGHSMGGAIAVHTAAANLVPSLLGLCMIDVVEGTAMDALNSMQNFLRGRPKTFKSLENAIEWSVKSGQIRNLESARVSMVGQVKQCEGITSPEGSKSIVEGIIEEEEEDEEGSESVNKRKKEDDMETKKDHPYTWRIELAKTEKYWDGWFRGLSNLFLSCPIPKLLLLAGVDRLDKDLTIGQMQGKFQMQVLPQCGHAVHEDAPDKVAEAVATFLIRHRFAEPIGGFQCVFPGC

[2] = biological target: T1, Protein Phosphatase Methylesterase-1 (PME-1), endogenous protein of NIH3T3 cells (mouse); assay: co-immunoprecipitation

“HA-tagged PP2A C subunit double mutant H59Q/301Stop (from UniProt P67775 1-300) (enzyme)” was tested, and the binding [1] was “binds” and the binding [2] was “binds”.
